Source: article PMC10657630
These are yes or no findings as the source states them, for the method shown. Binding seen in cells or lysates may run through a third protein. Here binding means that the protein was enriched with, or labelled near, the bait; the list need not be complete.

Amino acid sequences for entries named in this document (tags omitted). A change or cut given only in a name is not applied to a line headed by its entry. Residues count along the entry.
UniProt P61961: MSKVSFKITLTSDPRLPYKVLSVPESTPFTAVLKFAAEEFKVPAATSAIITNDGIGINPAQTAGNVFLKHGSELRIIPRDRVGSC
UniProt P06909, residues 19-1234: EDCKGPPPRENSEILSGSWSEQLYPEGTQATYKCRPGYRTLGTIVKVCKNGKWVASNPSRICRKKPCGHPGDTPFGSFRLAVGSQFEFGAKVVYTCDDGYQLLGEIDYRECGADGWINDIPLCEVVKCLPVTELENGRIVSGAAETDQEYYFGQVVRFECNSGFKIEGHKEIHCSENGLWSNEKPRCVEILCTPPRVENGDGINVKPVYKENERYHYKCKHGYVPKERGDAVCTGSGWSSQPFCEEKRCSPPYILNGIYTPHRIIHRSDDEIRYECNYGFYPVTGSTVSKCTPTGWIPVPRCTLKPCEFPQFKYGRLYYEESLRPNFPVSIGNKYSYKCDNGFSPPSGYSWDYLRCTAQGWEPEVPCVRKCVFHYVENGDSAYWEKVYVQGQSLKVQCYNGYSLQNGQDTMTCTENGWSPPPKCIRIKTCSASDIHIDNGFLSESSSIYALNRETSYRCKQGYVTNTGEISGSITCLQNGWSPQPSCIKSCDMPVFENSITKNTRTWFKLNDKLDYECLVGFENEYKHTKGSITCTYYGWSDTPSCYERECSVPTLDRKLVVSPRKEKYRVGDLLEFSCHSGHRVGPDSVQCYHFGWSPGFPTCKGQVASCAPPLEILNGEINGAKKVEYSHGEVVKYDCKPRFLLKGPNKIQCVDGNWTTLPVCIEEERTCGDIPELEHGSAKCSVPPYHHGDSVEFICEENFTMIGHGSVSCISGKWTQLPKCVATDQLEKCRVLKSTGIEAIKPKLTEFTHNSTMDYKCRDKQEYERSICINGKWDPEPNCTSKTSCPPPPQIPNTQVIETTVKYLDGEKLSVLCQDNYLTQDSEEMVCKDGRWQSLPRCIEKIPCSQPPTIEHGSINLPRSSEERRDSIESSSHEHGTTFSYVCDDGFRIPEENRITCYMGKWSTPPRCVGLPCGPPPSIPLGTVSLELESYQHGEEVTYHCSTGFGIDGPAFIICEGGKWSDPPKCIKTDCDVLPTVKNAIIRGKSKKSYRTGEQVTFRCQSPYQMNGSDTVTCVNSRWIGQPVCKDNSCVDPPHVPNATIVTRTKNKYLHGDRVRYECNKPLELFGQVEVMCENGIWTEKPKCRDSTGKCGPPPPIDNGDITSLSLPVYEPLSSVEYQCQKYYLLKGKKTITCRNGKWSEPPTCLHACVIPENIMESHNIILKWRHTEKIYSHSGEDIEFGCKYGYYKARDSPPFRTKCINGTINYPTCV
UniProt O54950: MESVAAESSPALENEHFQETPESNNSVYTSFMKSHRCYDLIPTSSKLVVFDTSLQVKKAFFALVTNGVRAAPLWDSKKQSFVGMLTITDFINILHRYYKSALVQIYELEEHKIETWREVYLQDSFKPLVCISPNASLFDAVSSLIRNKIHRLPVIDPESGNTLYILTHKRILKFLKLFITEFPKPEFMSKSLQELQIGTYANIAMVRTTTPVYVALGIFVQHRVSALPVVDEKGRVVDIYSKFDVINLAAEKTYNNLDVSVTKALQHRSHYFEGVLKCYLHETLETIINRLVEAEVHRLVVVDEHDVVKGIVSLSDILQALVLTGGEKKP
UniProt O35678: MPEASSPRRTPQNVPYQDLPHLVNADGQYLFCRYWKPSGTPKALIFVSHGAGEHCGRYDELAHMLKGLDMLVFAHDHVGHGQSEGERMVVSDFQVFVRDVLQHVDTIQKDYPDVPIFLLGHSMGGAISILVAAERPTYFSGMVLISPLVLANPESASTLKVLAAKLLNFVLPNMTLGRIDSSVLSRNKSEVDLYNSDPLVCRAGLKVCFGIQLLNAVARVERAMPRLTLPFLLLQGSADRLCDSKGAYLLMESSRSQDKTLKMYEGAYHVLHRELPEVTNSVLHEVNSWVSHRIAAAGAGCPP
UniProt Q8JZQ2, residues 67-802: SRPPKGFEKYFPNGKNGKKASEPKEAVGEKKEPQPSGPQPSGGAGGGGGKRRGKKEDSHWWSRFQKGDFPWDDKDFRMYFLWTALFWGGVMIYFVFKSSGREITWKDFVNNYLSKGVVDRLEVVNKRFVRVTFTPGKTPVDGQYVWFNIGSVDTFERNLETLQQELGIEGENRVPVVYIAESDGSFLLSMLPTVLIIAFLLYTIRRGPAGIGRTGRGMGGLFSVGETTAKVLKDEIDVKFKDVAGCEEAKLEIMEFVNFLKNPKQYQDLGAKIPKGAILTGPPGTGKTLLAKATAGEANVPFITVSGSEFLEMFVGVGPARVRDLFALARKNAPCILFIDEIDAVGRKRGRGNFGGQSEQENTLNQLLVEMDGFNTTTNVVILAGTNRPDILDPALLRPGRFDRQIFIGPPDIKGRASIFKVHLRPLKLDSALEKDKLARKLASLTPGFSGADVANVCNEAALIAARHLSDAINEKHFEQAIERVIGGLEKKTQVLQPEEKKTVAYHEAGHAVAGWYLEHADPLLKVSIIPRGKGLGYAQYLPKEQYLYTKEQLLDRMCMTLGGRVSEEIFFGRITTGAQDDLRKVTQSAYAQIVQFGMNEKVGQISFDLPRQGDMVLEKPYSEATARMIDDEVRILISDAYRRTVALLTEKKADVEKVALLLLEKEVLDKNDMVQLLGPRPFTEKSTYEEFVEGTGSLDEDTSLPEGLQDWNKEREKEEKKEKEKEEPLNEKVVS
UniProt Q9JMC3: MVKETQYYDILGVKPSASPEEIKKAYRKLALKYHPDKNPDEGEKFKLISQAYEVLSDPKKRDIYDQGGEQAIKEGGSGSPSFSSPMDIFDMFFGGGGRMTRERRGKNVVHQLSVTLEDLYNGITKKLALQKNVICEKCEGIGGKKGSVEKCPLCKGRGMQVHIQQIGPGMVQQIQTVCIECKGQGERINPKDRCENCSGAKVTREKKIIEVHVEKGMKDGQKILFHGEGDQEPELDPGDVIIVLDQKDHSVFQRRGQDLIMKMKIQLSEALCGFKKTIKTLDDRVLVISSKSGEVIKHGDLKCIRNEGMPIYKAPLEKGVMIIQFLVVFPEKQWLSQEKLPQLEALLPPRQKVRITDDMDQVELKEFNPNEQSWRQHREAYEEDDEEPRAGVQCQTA

Biological target: Flag-6×His-tagged Ufm1ΔSC (UniProt P61961)
Experiment: affinity purification with mass spectrometry; heart tissue of Tg-Ufm1 mice (NTg mice as control) lysed in NP-40 lysis buffer; lysates with Dynabeads His-Tag Isolation and Pulldown at 4 °C for 30 min, washed five times, eluted with 300 mM imidazole; LC-MS/MS; proteins of the control filtered out, unique peptide number ≥ 2

Molecule	binding
Hk1 (from UniProt P17710-3)	binds
Cfh (from UniProt P06909 19-1234)	binds
Prkag1 (from UniProt O54950 1-330)	binds
Mgll (from UniProt O35678 1-303)	binds
Afg312 (from UniProt Q8JZQ2 67-802)	binds
Dnaja4 (from UniProt Q9JMC3 1-397)	binds
Ndufs5 (protein, UniProt Q99LY9 1-106) MPFLDIQKKLGISLDRHFMFLSAEQPYKNAARCHAFEKEWIECAHGIGGTRAKKECKIEFDDFEECLLRYKTMRRMHDIKKQREKLMKEGKYTPPPHHSGREEPRP	binds
Gys1 (protein, UniProt Q9Z1E4 1-738) MPLSRSLSVSSLPGLEDWEDEFDPENAVLFEVAWEVANKVGGIYTVLQTKAKVTGDEWGDNYYLVGPYTEQGVRTQVELLEPPTPELKRTLDSMNSKGCKVYFGRWLIEGGPLVVLLDVGASAWALERWKGELWDTCNIGVPWYDREANDAVLFGFLTTWFLGEFLAQNEEKPYVVAHFHEWLAGVGLCLCRARRLPVATIFTTHATLLGRYLCAGAVDFYNNLENFNVDKEAGERQIYHRYCMERAAAHCAHVFTTVSQITAIEAQHLLKRKPDIVTPNGLNVKKFSAMHEFQNLHAQSKARIQEFVRGHFYGHLDFNLDKTLYFFIAGRYEFSNKGADVFLEALARLNYLLRVNGSEQTVVAFFIMPARTNNFNVETLKGQAVRKQLWDTANTVKEKFGRKLYESLLVGSLPDMNKMLDKEDFTMMKRAIFATQRQSFPPVCTHNMLDDSSDPILTTIRRIGLFNSSADRVKVIFHPEFLSSTSPLLPVDYEEFVRGCHLGVFPSYYEPWGYTPAECTVMGIPSISTNLSGFGCFMEEHIADPSAYGIYILDRRFRSLDDSCSQLTSFLYSFCQQSRRQRIIQRNRTERLSDLLDWKYLGRYYMSARHMALAKAFPDHFTYEPHEVDATQGYRYPRPASVPPSPSLSRHSSPHQSEDEEEPRDGPLGEDSERYDEEEEAAKDRRNIRAPEWPRRASCSSSTGGSKRSNSVDTGPSSSLSTPTEPLSPTSSLGEERN	binds
Ugp2 (protein, UniProt Q91ZJ5 1-508) MSRFVQDLSKAMSQDGASQFQEVILQELELSVKKELEKILTTAASHEFEHTKKDLDGFRKLFHRFLQEKGPSVDWGKIQRPPEDSIQPYEKIKARGLPDNISSVLNKLVVVKLNGGLGTSMGCKGPKSLIGVRNENTFLDLTVQQIEHLNKTYNTDVPLVLMNSFNTDEDTKKILQKYNHCRVKIYTFNQSRYPRINKESLLPIAKDVSYSGENTEAWYPPGHGDIYASFYNSGLLDTFIEEGKEYIFVSNIDNLGATVDLYILNHLMNPPNGKRCEFVMEVTNKTRADVKGGTLTQYEGKLRLVEIAQVPKAHVDEFKSVSKFKIFNTNNLWISLGAVKRLQEQNAIDMEIIVNPKTLDGGLNVIQLETAVGAAIKSFENSLGINVPRSRFLPVKTTSDLLLVMSNLYSLNAGSLTMSEKREFPTVPLVKLGSSFTKVQDYLRRFESIPDMLELDHLTVSGDVTFGKNVSLKGTVIIIANHGDRIDIPPGAVLENKIVSGNLRILDH	binds
Tha1 (protein, UniProt Q6XPS7 1-400) MLCSLFRAAMLRSLFRATVPGLRVPWAQWSRNWAGVPAHVVDLRSDTVTRPGPAMRRAMAEAVVGDDDYGEDPTVHELQEKAAELLGVERTLFVPTNTMANLISVMGHCRRRGSQVLLGQECHLHVYEQGGVAQIAGVHSHPLPDLPYGTLDLNELERALTRGSGSPYHPVCELVYLENTHSSAGGRVLPVDYLRQVCLLAHAHGARVHMDGARLMNAAVALRIPPARLVEHCDSVSFCFSKGLGAPVGALVGGSKDFIGEAWRLRKALGGGMRQAGVLAAAALVGLAEAEEVLPRDHENAQRFAKGLQDLASPICSVDPATVETNMVLVQVAGLPPSELCQRLQAVSAEEVAQTGRAVRVLLFPWTEQSVRAVWHRDVSAQDTELALKKWEFVLRQLRP	binds
mtATP8 (protein, UniProt P03930 1-67) MPQLDTSTWFITIISSMITLFILFQLKVSSQTFPLAPSPKSLTTMKVKTPWELKWTKIYLPHSLPQQ	binds
Timm21 (protein, UniProt Q8CCM6 19-244) LGRQLLPHFVFTKACFKTQPLRWGLREQKITVQPRTVLRFTQKTFWTQGPDPRKAKEDSTKQVSIRRNQREETGVSMSQKVREAGRDVSYLIVVLFGVGLTGGLLYAIFKELFFSSSPNIIYGKALGKCRTHPEVIGVFGEPLKGYGEMSRRGRRQHVRFSEYVNNGLKRIRVKFYIEGSEPGKQGTVHAEVEENPGSGQFEFRYIFVEVTPTRSIIVEDNRSEQS	binds
Mrpl37 (protein, UniProt Q921S7 30-423) AYEWGVRSTRKPEPRPLDRVYEIPGLEPITYEGKKHFVPWLARPIFPPWERGWNDPRFHRAAPIHEQTLYKEEPCYIFHQRCRLLEGMKQALWLTKTKLIEGLPKKVLSLVDDPANHIENQEQRVLDIISHARLWHSTEDIPKRETYCPLIVDSLIQLCKSQILKHPSLARRTSAQNCTLATTWNRESLLLQVRGTSSTILSAKDPLPVIASREEVEATRSHVLETFYPISPTIDLQECHVYEVKDDTGFQEGYPYPHPHTLYFLEKANLRPQRFLPEQLRAKMLLFAFANALAQARLLYGNTAKVLEQPIVVQSVGTDGRVFQFLVLQLNTTDLASSEGVKNLVWTDSDQLLYRHFWCRPVIKKKVVVEPVGPVDFQPETFRKFLALYLHGVV	binds
Hspb6 (protein, UniProt Q5EBG6 1-162) MEIPVPVQPSWLRRASAPLPGFSAPGRLFDQRFGEGLLEAELASLCPAAIAPYYLRAPSVALPTAQVSTDSGYFSVLLDVKHFLPEEISVKVVDDHVEVHARHEERPDEHGFIAREFHRRYRLPPGVDPAAVTSALSPEGVLSIQATPASAQAQLPSPPAAK	binds
Fgb (protein, UniProt Q8K0E8 20-481) ADDDYDEPTDSLDARGHRPVDRRKEEPPSLRPAPPPISGGGYRARPAKATANQKKVERRPPDAGGCLHADTDMGVLCPTGCTLQQTLLNQERPIKSSIAELNNNIQSVSDTSSVTFQYLTLLKDMWKKKQAQVKENENVINEYSSILEDQRLYIDETVNDNIPLNLRVLRSILEDLRSKIQKLESDISAQMEYCRTPCTVSCNIPVVSGKECEEIIRKGGETSEMYLIQPDTSIKPYRVYCDMKTENGGWTVIQNRQDGSVDFGRKWDPYKKGFGNIATNEDAKKYCGLPGEYWLGNDKISQLTRMGPTELLIEMEDWKGDKVKAHYGGFTVQNEASKYQVSVNKYKGTAGNALMDGASQLVGENRTMTIHNGMFFSTYDRDNDGWVTTDPRKQCSKEDGGGWWYNRCHAANPNGRYYWGGLYSWDMSKHGTDDGVVWMNWKGSWYSMRRMSMKIRPFFPQQ	binds
